For 40 sequences, binding signal results are on record in paper PMC7862700.

Only a part is listed here, and it is no random draw. At the low end of the ranking the order means little.

This test has as its target T1, ELK3 (UniProt P41970).
T1 sequence: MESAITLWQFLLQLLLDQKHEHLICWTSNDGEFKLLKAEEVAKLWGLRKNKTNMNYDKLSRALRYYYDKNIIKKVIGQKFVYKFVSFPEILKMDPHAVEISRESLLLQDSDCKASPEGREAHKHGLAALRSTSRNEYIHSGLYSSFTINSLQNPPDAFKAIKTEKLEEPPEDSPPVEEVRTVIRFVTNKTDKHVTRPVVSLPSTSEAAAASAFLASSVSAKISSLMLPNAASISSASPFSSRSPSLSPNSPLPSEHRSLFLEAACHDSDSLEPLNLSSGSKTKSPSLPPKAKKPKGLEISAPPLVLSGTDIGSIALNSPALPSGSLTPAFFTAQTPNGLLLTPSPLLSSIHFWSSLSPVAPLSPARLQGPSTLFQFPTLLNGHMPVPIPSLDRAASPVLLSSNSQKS
Briefly: DAPPL (digital affinity profiling via proximity ligation, sequencing). To be noted: 10 mM Tris-HCl pH 7.5, 50 mM NaCl, 1 mM DTT, 4% glycerol, room temperature, 30 min; GST-TFs on glutathione beads, 16-mer random dsDNA library, 0.1% …; high values mean tight binding; double strand, one strand shown; scale: fold enrichment (6-mer frequency, TF over GST control).
For the sequence TATGCC, the binding signal was 0.997.
As for TAGTTC, the figure is 1.15.
As for TGGTCC, the figure is 1.15; as for CTTACT, 1.34.
ACCACA registered a binding signal of 1.14.
Next, GGCCTC: 1.1; AAAGTT: 1.17.
Sequence AAGAAG had a binding signal of 1.05.
In turn, TATCGC returned a binding signal of 0.995.
Next, TAGTAG: 0.973; CTCCAT: 1.36; ATGCCT: 1.22.
In turn, CCGACG gave a binding signal of 1.2.
Next, ACGTTG: 1.01; TGCTCC: 1.38; CCACAT: 1.14.
Regarding AGGAAG, the binding signal was determined as 1.26.
Next, CCCTTC: 1.44.
Next, CCTTAC: 1.22.
CGTTTT registered a binding signal of 1.12.
As for CTTCCA, the figure is 1.58; as for CGCTTG, 1.07.
Next, AGCATT: 1.07; CCGTTC: 1.4; GCACTG: 1.06.
For the sequence AGCAAC, the binding signal was found to be 0.995.
As for ATCTGG, the figure is 1.09; as for AAGGCA, 0.892; as for ACGTTT, 1.2.
For the sequence CTACCC, the binding signal came to 1.31.
As for TCCCGA, the binding signal was 1.35.
GCCCCG returned a binding signal of 0.878.
On to ATTCAA, for which the binding signal was found to be 1.39.
GCTAAG showed a binding signal of 0.871.
Next, TTTCAC: 1.39; CCCTAT: 1.46.
Next, TAGATT: 0.994; CTCTAC: 1.27.
TACGTC came in with a binding signal of 1.21.
Turning to GCACTA, the binding signal was found to be 1.23.
